PubChem BioAssay AID504772 – Drosophila RNAi Screening Center – 2011

Test: 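Finding modifiers of Wnt signalling started by LRP6 in fly cells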 (primary screen)
Cells: Drosophila clone 8 cells
Reagents: long dsRNA against Drosophila genes
Timing: four days
Treatment: pathway switched on by co-transfected constitutively active LRP6 lacking its extracellular part (DeltaNLRP6)
Measured: 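Wnt reporter luminescence divided by Renilla signal, recorded as a rise or fall, four days after knockdown in cells made active by an LRP6 form missing its extracellular part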
Active means: 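a gene is picked when its silencing raises Wnt reporter signal by twofold or more and a human counterpart of the fly gene is known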
Meaning of the calls: active = picked as conserved enhancer hit; inactive = not picked
The reagents shown are a selection, not the whole library. 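Only primary screen hits listed, as up or down without numbers; fold changes behind calls not deposited; all reporter-lowering hits marked not picked.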 Unmarked entries are inactive. Names joined by + are all predicted targets of the reagent. The record does not give: the amount of reagent, the dose of the treatment.

gene | amplicon | reporter change after knockdown
CG14017 | DRSC02348 | reporter signal went down
TwdlK (TweedleK) | DRSC16045 | reporter signal went down
mdu (meduse) | DRSC19860 | reporter signal went down
CG5004 | DRSC20123 | reporter signal went down
CkIalpha (Casein kinase Ialpha) | DRSC20231 | reporter signal went up
His2B:CG33870 + His2B:CG33868 + His2B:CG33882 + 21 more | DRSC03757 | reporter signal went up
CG15894 | DRSC18099 | reporter signal went up
OtopLc (Otopetrin-like c) | DRSC18083 | reporter signal went down
l(1)10Bb (lethal (1) 10Bb) | DRSC20346 | reporter signal went up
puf (puffyeye) | DRSC15875 | reporter signal went up
CG5402 | DRSC15792 | reporter signal went down
orb (oo18 RNA-binding protein) | DRSC17021 | reporter signal went down
Rab26 | DRSC11837 | reporter signal went down
CG43902 | DRSC17999 | reporter signal went up
Sf3a2 (Splicing factor 3a subunit 2) | DRSC09801 | reporter signal went up
B52 | DRSC14121 | reporter signal went down
Hk (Hyperkinetic) | DRSC18674 | reporter signal went down
Pvf3 (PDGF- and VEGF-related factor 3) | DRSC02286 | reporter signal went down
CkIIalpha (casein kinase IIalpha) | DRSC11946 | reporter signal went down
CG13743 | DRSC06414 | reporter signal went up
gw (gawky) | DRSC17135 | reporter signal went up (active)
Bx42 | DRSC17743 | reporter signal went up (active)
eIF3g1 (eukaryotic translation initiation factor 3 subunit g1) | DRSC18427 | reporter signal went up
msi (musashi) | DRSC17003 | reporter signal went up
Taf1 (TBP-associated factor 1) | DRSC12607 | reporter signal went up
CG14107 | DRSC10110 | reporter signal went down
CG11983 | DRSC14458 | reporter signal went down
His2Av (Histone H2A variant) | DRSC16702 | reporter signal went up
CG8435 | DRSC07179 | reporter signal went up (active)
Tbp (TATA binding protein) | DRSC04662 | reporter signal went down
NC2alpha (Negative Cofactor 2alpha) | DRSC04059 | reporter signal went up
CG31145 | DRSC14670 | reporter signal went down
Prp3 (Precursor RNA processing 3) | DRSC10912 | reporter signal went up
Hsc70-3 (Heat shock protein 70 cognate 3) | DRSC20253 | reporter signal went up (active)
Spt20 | DRSC10280 | reporter signal went up
Taf7 (TBP-associated factor 7) | DRSC15445 | reporter signal went up
Chi (Chip) | DRSC04602 | reporter signal went down
SmB (Small ribonucleoprotein particle protein SmB) | DRSC03437 | reporter signal went up
CG8192 | DRSC07101 | reporter signal went up
Elp4 (Elongator complex protein 4) | DRSC02999 | reporter signal went down
velo (veloren) | DRSC09698 | reporter signal went up
eyg (eyegone) | DRSC11344 | reporter signal went down
Lrt (Leucine-rich tendon-specific protein) | DRSC06045 | reporter signal went down
row (relative of woc) | DRSC07076 | reporter signal went up
Fkbp39 (FK506-binding protein 39kD) | DRSC16667 | reporter signal went down
Taf9 (TBP-associated factor 9) | DRSC20326 | reporter signal went up
Taf4 (TBP-associated factor 4) | DRSC11297 | reporter signal went up
CG43736 + CG33692 (retired record) | DRSC18370 | reporter signal went up
Sym (Symplekin) | DRSC12301 | reporter signal went down
Rm62 | DRSC12365 | reporter signal went up
psq (pipsqueak) | DRSC07668 | reporter signal went down
ttk (tramtrack) | DRSC17091 | reporter signal went down
srp (serpent) | DRSC17068 | reporter signal went down
eIF2alpha (eukaryotic translation initiation factor 2 subunit alpha) | DRSC20327 | reporter signal went up
bel (belle) | DRSC16555 | reporter signal went up (active)
spri (sprint) | DRSC17846 | reporter signal went down
E23 (Early gene at 23) | DRSC00425 | reporter signal went down
akirin | DRSC11000 | reporter signal went down
bun (bunched) | DRSC03500 | reporter signal went up
CG6118 | DRSC15968 | reporter signal went down
Map205 (Microtubule-associated protein 205) | DRSC16732 | reporter signal went up
TfIIA-L (Transcription factor IIA L) | DRSC16882 | reporter signal went down
CG43773 | DRSC00287 | reporter signal went down
CngA (Cyclic nucleotide-gated ion channel subunit A) | DRSC06580 | reporter signal went down
CG4849 | DRSC15662 | reporter signal went up
CG1737 | DRSC19771 | reporter signal went up
CG32772 | DRSC18052 | reporter signal went up
Lmx1a (LIM homeobox transcription factor 1 alpha) | DRSC10275 | reporter signal went down
SKIP (Shal K[+] channel interacting protein) | DRSC14713 | reporter signal went up
br (broad) | DRSC18744 | reporter signal went down
CG44838 | DRSC10330 | reporter signal went down
Smr (Smrter) | DRSC19495 | reporter signal went down
snRNP-U1-C (small ribonucleoprotein particle U1 subunit C) | DRSC15804 | reporter signal went up
Hibch (3-hydroxyisobutyryl-CoA hydrolase) | DRSC15705 | reporter signal went up
tn (thin) | DRSC06532 | reporter signal went down
CG33543 | DRSC00384 | reporter signal went up
AGO2 (Argonaute 2) | DRSC10847 | reporter signal went up
bsd (back seat driver) | DRSC05953 | reporter signal went up
enok (enoki mushroom) | DRSC04096 | reporter signal went up (active)
Tnpo (Transportin) | DRSC11309 | reporter signal went up (active)
CG2993 | DRSC15457 | reporter signal went up
ringer (ringmaker) | DRSC10455 | reporter signal went down

Laid out differently: results already given
gene	amplicon	reporter change after knockdown
Map205 (Microtubule-associated protein 205)	DRSC16732	reporter signal went up
TfIIA-L (Transcription factor IIA L)	DRSC16882	reporter signal went down
CG43773	DRSC00287	reporter signal went down
CngA (Cyclic nucleotide-gated ion channel subunit A)	DRSC06580	reporter signal went down
CG4849	DRSC15662	reporter signal went up
CG1737	DRSC19771	reporter signal went up
CG32772	DRSC18052	reporter signal went up
Lmx1a (LIM homeobox transcription factor 1 alpha)	DRSC10275	reporter signal went down
SKIP (Shal K[+] channel interacting protein)	DRSC14713	reporter signal went up
br (broad)	DRSC18744	reporter signal went down
CG44838	DRSC10330	reporter signal went down
Smr (Smrter)	DRSC19495	reporter signal went down
snRNP-U1-C (small ribonucleoprotein particle U1 subunit C)	DRSC15804	reporter signal went up
Hibch (3-hydroxyisobutyryl-CoA hydrolase)	DRSC15705	reporter signal went up
tn (thin)	DRSC06532	reporter signal went down
CG33543	DRSC00384	reporter signal went up
AGO2 (Argonaute 2)	DRSC10847	reporter signal went up
bsd (back seat driver)	DRSC05953	reporter signal went up

The list goes on:
gene | amplicon | reporter change after knockdown
pdm2 (POU domain protein 2) | DRSC02496 | reporter signal went down
CkIIbeta (Casein kinase II beta subunit) | DRSC20230 | reporter signal went down
Nup205 (Nucleoporin 205kD) | DRSC19432 | reporter signal went up
CG33270 | DRSC10584 | reporter signal went down
Bili (Band4.1 inhibitor LRP interactor) | DRSC14405 | reporter signal went up (active)
ssx | DRSC18492 | reporter signal went down
lilli (lilliputian) | DRSC00708 | reporter signal went down
mof (males absent on the first) | DRSC18795 | reporter signal went up
MED26 (Mediator complex subunit 26) | DRSC17147 | reporter signal went up
DIP-alpha (Dpr-interacting protein alpha) | DRSC17892 | reporter signal went down
CG16903 | DRSC18561 | reporter signal went up
sals (sarcomere length short) | DRSC16113 | reporter signal went down
CG4502 | DRSC02755 | reporter signal went down
nsl1 (non-specific lethal 1) | DRSC15625 | reporter signal went up
rno (rhinoceros) | DRSC08584 | reporter signal went down
IntS1 (Integrator 1) | DRSC04343 | reporter signal went down
Dp (DP transcription factor) | DRSC07402 | reporter signal went down
unc-13-4A | DRSC10203 | reporter signal went down
msopa (male-specific opa containing gene) | DRSC11895 | reporter signal went down
Meics (Meiotic central spindle) | DRSC11413 | reporter signal went down
Brr2 (Brr2 U5 snRNP complex subunit) | DRSC10559 | reporter signal went up
NC2beta (Negative Cofactor 2beta) | DRSC01895 | reporter signal went up
mura (murashka) | DRSC16484 | reporter signal went down
Nipped-A | DRSC04882 | reporter signal went up
Nipped-A | DRSC04884 | reporter signal went up
Nipped-A | DRSC07738 | reporter signal went up
CG18649 | DRSC10334 | reporter signal went up
RpS3A (Ribosomal protein S3A) | DRSC17168 | reporter signal went down
ubl (ubiquitin like) | DRSC04998 | reporter signal went up
Nlg3 (Neuroligin 3) | DRSC12574 | reporter signal went down
Bre1 | DRSC09742 | reporter signal went up
cad (caudal) | DRSC03502 | reporter signal went down
Pp2B-14D (Protein phosphatase 2B at 14D) | DRSC20270 | reporter signal went down
CycT (Cyclin T) | DRSC11124 | reporter signal went down
CG42686 (retired record) | DRSC15247 | reporter signal went down
CG42724 | DRSC12567 | reporter signal went up
lola (longitudinals lacking) | DRSC06742 | reporter signal went down
ash1 (absent, small, or homeotic discs 1) | DRSC11325 | reporter signal went up (active)
hyx (hyrax) | DRSC14462 | reporter signal went down
Mi-2 | DRSC11222 | reporter signal went up
Bicra | DRSC14417 | reporter signal went up
Tip60 (Tat interactive protein 60kDa) | DRSC18661 | reporter signal went up
DMAP1 (DNA methyltransferase 1 associated protein 1) | DRSC06044 | reporter signal went up
RpL27A (Ribosomal protein L27A) | DRSC00781 | reporter signal went up
trio | DRSC08527 | reporter signal went down
htk (hat-trick) | DRSC20031 | reporter signal went up
Vps4 (Vacuolar protein sorting 4) | DRSC19338 | reporter signal went up
CG34376 | DRSC14695 | reporter signal went down
pan (pangolin) | DRSC17176 | reporter signal went down
Acox3 (Acyl-CoA oxidase 3) | DRSC03251 | reporter signal went up
Pp2C1 (Protein phosphatase 2C) | DRSC18699 | reporter signal went up
BtbVII (BTB-protein-VII) | DRSC08151 | reporter signal went up
CG30053 | DRSC07260 | reporter signal went up
pygo (pygopus) | DRSC14322 | reporter signal went down
bon (bonus) | DRSC16914 | reporter signal went up
CG15432 | DRSC00447 | reporter signal went up (active)
PrBP (Prenyl-binding protein) | DRSC03189 | reporter signal went down
dlp (dally-like) | DRSC10281 | reporter signal went up
dlp (dally-like) | DRSC10472 | reporter signal went up
